Source: PubChem BioAssay AID652243 (Drosophila RNAi Screening Center, 2013)
The screen tested about 24,000 reagents; this is an unselected part of those that have a named target and a result. Of all reagents, 246 (1%) are marked active. 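Plates not normalised; calls are printed but the firefly/Renilla ratio behind them is not deposited; fold cut for lowering reported inconsistently.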 Raw values are not corrected between plates. The numbers tell different reagents against one gene apart. A plus sign joins genes that one reagent is predicted to hit. Reagent sequences are not shown. Not stated in the record: the amount of reagent.

Test: 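Fly genes required for human androgen receptor driven transcription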 (primary screen)
Cell system: Drosophila S2R+ cells
Reagent: long dsRNA against Drosophila genes
Timing: 72 h (48 h, then 24 h hormone)
Challenge: synthetic androgen R1881 at 10 nM for 24 h
Measurement: 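Firefly light from an androgen-responsive reporter and Renilla control light per well, raw and unnormalised, for each of two replicates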
Direction: firefly reporter light: higher = more light from androgen-responsive reporter; Renilla control light: higher = more constitutive control signal (cell number, transfection)
Active means: 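Hit when the log firefly-to-Renilla ratio dropped or increased by a fixed fold versus the mean of GFP or LacZ controls across duplicate plates; lowering cut given as 1.5 and as 3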
Calls: active = hit: reporter lowered or raised; inactive = no hit

gene | reagent | firefly reporter light, replicate 1 | firefly reporter light, replicate 2 | Renilla control light, replicate 1 | Renilla control light, replicate 2 | call
brn (brainiac) | 1 | 1.05e5 | 75493 | 6.86e5 | 6.72e5 | inactive
ND-30 (NADH dehydrogenase (ubiquinone) 30 kDa subunit) | 1 | 1.22e6 | 8.90e5 | 1.81e6 | 1.85e6 | inactive
Chchd2 (Coiled-coil-helix-coiled-coil-helix domain containing 2) | 1 | 7.25e5 | 8.74e5 | 1.77e6 | 1.79e6 | inactive
Chchd2 (Coiled-coil-helix-coiled-coil-helix domain containing 2) | 2 | 12234 | 9850 | 14812 | 14812 | inactive
CG15263 | 1 | 6.88e5 | 8.49e5 | 1.83e6 | 1.82e6 | inactive
CG15263 | 2 | 2.72e5 | 2.43e5 | 6.37e5 | 5.76e5 | inactive
CG15120 | 1 | 93733 | 1.35e5 | 1.91e6 | 1.45e6 | inactive
CG14107 | 1 | 1.05e5 | 51575 | 1.27e6 | 6.68e5 | inactive
CG14107 | 2 | 8.15e5 | 7.01e5 | 7.07e5 | 6.92e5 | inactive
Golgin245 (Golgin-245) | 1 | 7.80e5 | 6.96e5 | 9.76e5 | 1.04e6 | inactive
Golgin245 (Golgin-245) | 2 | 9.22e5 | 8.18e5 | 1.54e6 | 1.20e6 | inactive
Golgin245 (Golgin-245) | 3 | 7.30e5 | 4.61e5 | 1.46e6 | 1.62e6 | inactive
CG11635 | 1 | 5.15e5 | 3.60e5 | 2.39e6 | 2.29e6 | inactive
CG5646 | 1 | 1.00e5 | 78137 | 6.20e5 | 5.16e5 | inactive
CG5646 | 2 | 7.56e5 | 7.81e5 | 1.23e6 | 1.74e6 | inactive
Wdr92 (WD repeat domain 92) | 1 | 2.42e5 | 1.28e5 | 2.84e6 | 1.70e6 | inactive
PolD1 (DNA polymerase delta subunit 1) | 1 | 1.22e5 | 1.31e5 | 2.07e6 | 2.21e6 | active
PolD1 (DNA polymerase delta subunit 1) | 2 | 4.66e5 | 4.67e5 | 1.09e6 | 9.54e5 | inactive
Ccdc114 (Coiled-coil domain containing protein 114) | 1 | 1.08e5 | 1.33e5 | 1.75e6 | 1.82e6 | inactive
slif (slimfast) | 1 | 32617 | 74432 | 3.26e5 | 4.86e5 | inactive
slif (slimfast) | 2 | 2.57e5 | 2.26e5 | 6.45e5 | 7.31e5 | inactive
CG13786 | 1 | 2.65e5 | 2.17e5 | 2.27e6 | 1.83e6 | inactive
CG13786 | 2 | 1.73e5 | 2.24e5 | 3.52e5 | 8.10e5 | inactive
CG5897 | 1 | 2.52e5 | 2.12e5 | 2.19e6 | 1.72e6 | inactive
Vha36-1 (Vacuolar H[+] ATPase 36kD subunit 1) | 1 | 1.45e6 | 1.40e6 | 2.53e6 | 2.39e6 | inactive
Vha36-1 (Vacuolar H[+] ATPase 36kD subunit 1) | 2 | 5.86e5 | 4.27e5 | 1.53e6 | 6.47e5 | inactive
CG4646 | 1 | 2.35e5 | 1.15e5 | 1.63e6 | 1.09e6 | inactive

Continued, starting with the last 8 of the part before.
gene | reagent | firefly reporter light, replicate 1 | firefly reporter light, replicate 2 | Renilla control light, replicate 1 | Renilla control light, replicate 2 | call
slif (slimfast) | 1 | 32617 | 74432 | 3.26e5 | 4.86e5 | inactive
slif (slimfast) | 2 | 2.57e5 | 2.26e5 | 6.45e5 | 7.31e5 | inactive
CG13786 | 1 | 2.65e5 | 2.17e5 | 2.27e6 | 1.83e6 | inactive
CG13786 | 2 | 1.73e5 | 2.24e5 | 3.52e5 | 8.10e5 | inactive
CG5897 | 1 | 2.52e5 | 2.12e5 | 2.19e6 | 1.72e6 | inactive
Vha36-1 (Vacuolar H[+] ATPase 36kD subunit 1) | 1 | 1.45e6 | 1.40e6 | 2.53e6 | 2.39e6 | inactive
Vha36-1 (Vacuolar H[+] ATPase 36kD subunit 1) | 2 | 5.86e5 | 4.27e5 | 1.53e6 | 6.47e5 | inactive
CG4646 | 1 | 2.35e5 | 1.15e5 | 1.63e6 | 1.09e6 | inactive
CG10280 | 1 | 82166 | 60320 | 1.76e6 | 1.54e6 | inactive
CG10280 | 2 | 9.28e5 | 1.23e6 | 1.29e6 | 1.26e6 | inactive
BEAF-32 (Boundary element-associated factor of 32kD) | 1 | 9.55e5 | 5.07e5 | 2.02e6 | 1.22e6 | inactive
PIP5K59B (Phosphatidylinositol 4-phosphate 5-kinase 59B) | 1 | 7.46e5 | 2.60e5 | 1.11e6 | 8.81e5 | inactive
PIP5K59B (Phosphatidylinositol 4-phosphate 5-kinase 59B) | 2 | 5.24e5 | 4.50e5 | 2.17e6 | 1.89e6 | inactive
PIP5K59B (Phosphatidylinositol 4-phosphate 5-kinase 59B) | 3 | – | – | – | – | inactive
PIP5K59B (Phosphatidylinositol 4-phosphate 5-kinase 59B) | 4 | – | – | – | – | inactive
grim | 1 | 9.60e5 | 6.86e5 | 1.71e6 | 1.32e6 | inactive
TwdlB (TweedleB) | 1 | 1.85e5 | 1.80e5 | 1.71e6 | 1.62e6 | inactive
TwdlB (TweedleB) | 2 | 9.46e5 | 8.68e5 | 6.09e5 | 8.84e5 | inactive
mei-217 + mei-218 | 1 | 1.27e5 | 1.22e5 | 2.25e6 | 2.47e6 | inactive
Vha55 (Vacuolar H[+]-ATPase 55kD subunit) | 1 | 44511 | 45410 | 3.29e5 | 4.95e5 | inactive
Vha55 (Vacuolar H[+]-ATPase 55kD subunit) | 2 | 2.46e5 | 3.55e5 | 7.02e5 | 6.17e5 | inactive
Adss (Adenylosuccinate synthetase) | 1 | 76028 | 1.16e5 | 7.80e5 | 1.11e6 | inactive
Adss (Adenylosuccinate synthetase) | 2 | 8.79e5 | 8.90e5 | 1.11e6 | 1.26e6 | inactive
CG42720 (retired record) | 1 | 5.41e5 | 5.72e5 | 1.66e6 | 1.35e6 | inactive
CG42720 (retired record) | 2 | 3.87e5 | 3.36e5 | 1.54e6 | 1.54e6 | inactive
Gem2 (Gemin 2) | 1 | 13457 | 18888 | 3.22e5 | 2.16e5 | inactive
Tl (Toll) | 1 | 85783 | 98556 | 7.86e5 | 9.13e5 | inactive
Rab27 | 1 | 1.48e5 | 1.19e5 | 1.02e6 | 9.99e5 | inactive
CG8191 | 1 | 9.53e5 | 8.60e5 | 5.19e6 | 3.65e6 | inactive
CG15027 | 1 | 3.39e5 | 3.92e5 | 3.00e6 | 3.39e6 | inactive
CG6707 | 1 | 2.20e5 | 3.98e5 | 3.49e6 | 2.91e6 | inactive
nAChRalpha1 (nicotinic Acetylcholine Receptor alpha1) | 1 | 4548 | 11376 | 23591 | 33471 | inactive
nAChRalpha1 (nicotinic Acetylcholine Receptor alpha1) | 2 | 18958 | 12763 | 1.05e5 | 1.35e5 | active
nAChRalpha1 (nicotinic Acetylcholine Receptor alpha1) | 3 | 1.18e5 | 58979 | 1.50e5 | 1.24e5 | inactive
nAChRalpha1 (nicotinic Acetylcholine Receptor alpha1) | 4 | 1.86e5 | 2.58e5 | 3.07e6 | 2.94e6 | inactive
CG10651 | 1 | 92588 | 1.11e5 | 9.70e5 | 1.25e6 | inactive
peb (pebbled) | 1 | 7.00e5 | 7.55e5 | 1.54e6 | 1.54e6 | inactive
peb (pebbled) | 2 | 3.67e5 | 3.98e5 | 6.92e5 | 7.50e5 | inactive
YL-1 | 1 | 1.62e5 | 2.71e5 | 1.41e6 | 1.00e6 | inactive
YL-1 | 2 | 6.63e5 | 8.05e5 | 6.58e5 | 7.46e5 | inactive
